Reference: US20250074896A1, “ARYLTETRAHYDROPYRIDAZINE DERIVATIVE OR SALT THEREOF AND INSECTICIDAL AGENT CONTAINING THE COMPOUND AND METHOD FOR USING SAME” (NIHON NOHYAKU CO., LTD., priority 2021, published 2025)
Some of these results come from one statement about several compounds together.

How the values were obtained:
[1] = test system: Diamondback moth (Plutella xylostella); assay: Insecticidal test on diamondback moth (dip treatment of Chinese cabbage seedlings with laid eggs); type: in vivo; details: dip about 30 seconds, 6 days after treatment, 25° C.
Description: Insecticidal Test on Diamondback moth (Plutella xylostella)
Adults of diamondback moth were released onto Chinese cabbage seedlings and allowed to lay eggs thereon. At 2 days after the release of the adults, the Chinese cabbage seedlings with laid eggs were dipped for about 30 seconds in agrochemical dispersions diluted to 50 ppm or 500 ppm, each of which contained a different compound represented by the general formula (1) of the present invention as an active ingredient. After air-dried, the seedlings were kept in a thermostatic chamber at 25° C. At 6 days after the dip treatment, the number of surviving larvae per plot was counted, the corrected mortality rate was calculated according to the formula shown below, and the insecticidal efficacy was evaluated according to the criteria shown below. This test was conducted in triplicate using 10 adults of diamondback moth per plot.
• A: the mortality rate is 100%. • B: the mortality rate is 90 to 99%. • C: the mortality rate is 80 to 89%. • D: the mortality rate is 50 to 79%. • E: the mortality rate is 0 to 49%.

[2] = test system: Small Brown Planthopper (Laodelphax striatellus); assay: Insecticidal test on small brown planthopper (dipped rice seedlings, 3rd-instar larvae); type: in vivo; details: rice seedlings dipped 30 seconds, 8 days after inoculation

Row | SMILES | insecticidal efficacy (corrected mortality rate) against diamondback moth ([1]; 500 ppm) | insecticidal efficacy (corrected mortality rate) against small brown planthopper ([2]; 50 ppm) | insecticidal efficacy (corrected mortality rate) against small brown planthopper ([2]; 500 ppm) | insecticidal efficacy (corrected mortality rate) against diamondback moth ([1]; 50 ppm)
1 | O=C(Nc1ccc(Cl)cn1)C1=C(O)CN(c2ccc(Cl)nn2)NC1=O [1-198] | A (the mortality rate is 100%) | A (the mortality rate is 100%) | A (the mortality rate is 100%) | 
2 | CC(C)(C)OC(=O)N1C(=O)C(C(=S)NC2CC2)=C(O)CN1c1ccc(Br)nc1 [4-59] | A (the mortality rate is 100%) | A (the mortality rate is 100%) | A (the mortality rate is 100%) | 
3 | C=C(C)CNC(=O)C1=C(O)CN(c2ccc(Br)nc2)N(C(=O)OC)C1=O [3-400] | A (the mortality rate is 100%) | A (the mortality rate is 100%) | A (the mortality rate is 100%) | 
4 | N#Cc1cccc(NC(=O)C2=C(O)CN(c3ccc(Br)nc3)NC2=O)c1 [1-263] | A (the mortality rate is 100%) | A (the mortality rate is 100%) | A (the mortality rate is 100%) | A (the mortality rate is 100%)
5 | C=C(C)CNC(=O)C1=C(O)CN(c2ccc(Br)nc2)NC1=O [1-240] | A (the mortality rate is 100%) |  | A (the mortality rate is 100%) | 
6 | N#Cc1ccc(N2CC(O)=C(C(=O)Nc3cnccn3)C(=O)N2)cc1 [1-225] | A (the mortality rate is 100%) | A (the mortality rate is 100%) | A (the mortality rate is 100%) | 
7 | COc1cncc(NC(=O)C2=C(O)CN(c3ccc(Br)nc3)NC2=O)n1 [1-311] | A (the mortality rate is 100%) | A (the mortality rate is 100%) | A (the mortality rate is 100%) | 
8 | O=C(Nc1ccc(Cl)nc1)C1=C(O)CN(c2ccc(Cl)nc2)NC1=O [1-45] | A (the mortality rate is 100%) |  | A (the mortality rate is 100%) | 
9 | COc1ccc(NC(=O)C2=C(O)CN(c3ccc(C#N)nc3)NC2=O)cc1 [1-112] | A (the mortality rate is 100%) |  | A (the mortality rate is 100%) | 
10 | Cc1ccc(NC(=O)C2=C(O)CN(c3ccc(Br)nc3)NC2=O)nc1C [1-393] | A (the mortality rate is 100%) | A (the mortality rate is 100%) | A (the mortality rate is 100%) | A (the mortality rate is 100%)
11 | CCNC(=O)N1C(=O)C(C(=O)Nc2ccc(F)cc2)=C(O)CN1c1ncc(Br)cn1 [3-43] | A (the mortality rate is 100%) | A (the mortality rate is 100%) | A (the mortality rate is 100%) | A (the mortality rate is 100%)
12 | CNC(=O)C1=C(O)CN(c2ccc(Br)nc2)NC1=O [1-202] | A (the mortality rate is 100%) | A (the mortality rate is 100%) | A (the mortality rate is 100%) | 
13 | COC(=O)N1C(=O)C(C(=S)NC2CC2)=C(O)CN1c1ccc(Br)nc1 [4-77] | A (the mortality rate is 100%) | A (the mortality rate is 100%) | A (the mortality rate is 100%) | 
14 | CNC(=O)C1=C(O)CN(c2ccc(C(F)(F)F)cn2)N(C(=O)OCC(C)C)C1=O [3-289] | A (the mortality rate is 100%) |  | A (the mortality rate is 100%) | 
15 | CCn1ccc(NC(=O)C2=C(O)CN(c3ccc(C#N)c(OC)c3)NC2=O)n1 [1-274] | A (the mortality rate is 100%) |  | A (the mortality rate is 100%) | 
16 | COc1ccc(NC(=O)C2=C(O)CN(c3ccc(Cl)nc3)NC2=O)cc1 [1-110] | A (the mortality rate is 100%) |  | A (the mortality rate is 100%) | 
17 | N#Cc1ccc(N2CC(O)=C(C(=S)Nc3ccc(F)cc3)C(=O)N2)cn1 [2-3] | A (the mortality rate is 100%) |  | A (the mortality rate is 100%) | 
18 | CC(C)(C)OC(=O)N1C(=O)C(C(=S)Nc2ccc(F)cc2)=C(O)CN1c1ccc(-c2ccc(C(F)(F)F)cc2)nc1 [4-12] | A (the mortality rate is 100%) | A (the mortality rate is 100%) | A (the mortality rate is 100%) | A (the mortality rate is 100%)
19 | COC(=O)N1C(=O)C(C(=O)Nc2ccn(C)n2)=C(O)CN1c1ccc(C#N)cn1 [3-493] | A (the mortality rate is 100%) | A (the mortality rate is 100%) | A (the mortality rate is 100%) | 
20 | COC(=O)N1C(=O)C(C(=O)Nc2cccc(C)n2)=C(O)CN1c1ccc(Br)nc1 [3-513] | A (the mortality rate is 100%) | A (the mortality rate is 100%) | A (the mortality rate is 100%) | 
21 | N#Cc1ccc(N2CC(O)=C(C(=O)Nc3ccno3)C(=O)N2)cc1 [1-269] | A (the mortality rate is 100%) |  | A (the mortality rate is 100%) | 
22 | CC(C)COC(=O)N1C(=O)C(C(=O)Nc2ccc(F)cc2)=C(O)CN1c1ccc(C(F)(F)F)cn1 [3-288] | A (the mortality rate is 100%) |  | A (the mortality rate is 100%) | 
23 | N#Cc1ccc(NC(=O)C2=C(O)CN(c3ccc(Br)nc3)NC2=O)nc1 [1-265] | A (the mortality rate is 100%) |  | A (the mortality rate is 100%) | 
24 | Cc1cc(NC(=O)C2=C(O)CN(c3ccc(C#N)cc3)NC2=O)no1 [1-303] | A (the mortality rate is 100%) |  | A (the mortality rate is 100%) | 
